# Results published in PubChem BioAssay AID540276 (National Center for Advancing Translational Sciences (NCATS), 2011).
# The campaign covered roughly 300,000 compounds. About 5,400 (1.8%) were called active. This list was built around the results that the source calls inconclusive (neither active nor inactive); the mix of calls is not that of the screen. Calls come from the whole dose curve; tested in HEK293 cells. Potencies beside an inconclusive call are fits to weak or partial responses and may not hold up.
# Assay: qHTS for inhibitors of binding or entry into cells for Marburg Virus
# Conditions: Marburg virus pseudotyped entry inhibition, cell reporter; activity change, negative = inhibition: at 37.8 µM (top of the series) unless noted
# % is set by controls: 0 for no effect and ±100 for the full control effect; potency is the fitted concentration of half-maximal effect.
Compound,Potency,"activity change, negative = inhibition"
Oc1ccc(N=C/C=C/c2cccc(Br)c2)cc1-c1nc2ccccc2s1,"inconclusive: 1.26 µM [activator, single point]",–
COc1ccc(-n2cc(CNC(C)c3ccncn3)c(-c3cccc(F)c3)n2)cc1 (stereo not drawn),"inconclusive: 35.5 µM [inhibitor, single point]",–
Cc1ccc(SCC(=O)Nc2c(Br)cnn2C)cc1,"inconclusive: 8.91 µM [inhibitor, partial curve]",–
Nc1nc(NC(=O)c2cccnc2)nn1-c1ccccc1,–,inactive: 4.77%
COc1cc(C(=O)NC2CC3CCCC(C2)N3C2CC2)cc(OC)c1OC (stereo not drawn),"inconclusive: 10 µM [inhibitor, single point]",–
N=C(N)c1ccc(OCCCCCOc2ccc(C(=N)N)cc2)cc1,"inconclusive: 23.1 µM [inhibitor, single point]",–
COC(=O)C1=C(C(=O)OC)[C@@H]2N(Cc3ccccc3)c3ccccc3[C@@]23C[C@@H](C(=O)OC)N(C(=O)c2cc(C)oc2C)C3=N1,"inconclusive: 0.473 µM [inhibitor, partial curve, poor fit]",–
Cc1nn(-c2ccccc2)c(N2CCCC2)c1/C=N/NC(=S)Nc1ccccc1C(F)(F)F,"inconclusive: 1.26 µM [activator, single point]",–
Cn1c(=O)c2nc3ccc(NC(=O)C(F)(F)F)cc3nc2n(C)c1=O,"inconclusive: 5.62 µM [inhibitor, partial curve, poor fit]",–
Cc1ccc(N/N=C(/Sc2nnnn2-c2ccccc2)C(=O)c2ccccc2)cc1,–,inactive: -5.28%
CCOC(=O)c1cnc(SC)nc1N1CCCC1,"inconclusive: 3.98 µM [activator, partial curve, poor fit]",–
O=C(c1cc2c([nH]c1=O)CCCC2)N1CCc2c([nH]c3ccccc23)C1c1ccccc1F (stereo not drawn),"inconclusive: 35.5 µM [inhibitor, single point]",–
CCc1nc(NC[C@H]2CCCO2)c(C#N)c2c1COC(C)(C)C2,–,inactive: 4.76% [at 46.1 µM]
CC1=C(CCN2CCN(C3CCCC3)C(CCO)C2)C(C)(C)CCC1 (stereo not drawn),"inconclusive: 11.2 µM [inhibitor, partial curve, poor fit]",–
CCOc1cc(/C=C2/NC(=O)N(CC(=O)Nc3cccc(C)c3)C2=O)ccc1OC,"inconclusive: 22.4 µM [inhibitor, single point]",–
CCCOC1CCCN(Cc2cn(C)nc2-c2ccccc2F)C1 (stereo not drawn),"inconclusive: 7.94 µM [inhibitor, partial curve]",–
NC1=NN=C(c2ccc3c(c2)OCCO3)CS1,active: 11.2 µM,–
O=C(Cn1cnc2ccccc2c1=O)c1ccc2c(c1)OCCO2,"inconclusive: 31.6 µM [inhibitor, single point]",–

# An excerpt from above in order of heavy-atom count, largest number first.
Compound,Potency,"activity change, negative = inhibition"
Cc1ccc(N/N=C(/Sc2nnnn2-c2ccccc2)C(=O)c2ccccc2)cc1,–,inactive: -5.28%
Cn1c(=O)c2nc3ccc(NC(=O)C(F)(F)F)cc3nc2n(C)c1=O,"inconclusive: 5.62 µM [inhibitor, partial curve, poor fit]",–
Cc1ccc(SCC(=O)Nc2c(Br)cnn2C)cc1,"inconclusive: 8.91 µM [inhibitor, partial curve]",–
